± gives the standard deviation of the averaged measurements. The list shows a part of the results.
Compound: Nc1nc2c(ncn2[C@@H]2O[C@H](COP(=O)(O)OP(=O)(O)OP(=O)(O)O)[C@@H](O)[C@H]2O)c(=O)[nH]1 [guanosine triphosphate]
Assay: NP40-soluble protein abundance relative to vehicle (solubility fold change) (ratio); higher = more soluble protein in presence of GTP
Summary of the method: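 Crude Jurkat lysate, prepared by Dounce homogenisation, was exposed to eight concentrations from 0.1 to 10 mM for 10 min at room temperature and then 3 min at 37 °C. Solubilisation used 0.8% NP40 with benzonase for 60 min at 4 °C, followed by ultracentrifugation and TMT labelling of the supernatant for LC-MS/MS. After vsn normalisation of intensities, each value is the fold change against the detergent-processed vehicle within each replicate, across three independent experiments.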

Protein sequences, listed by entry. Tags and fused reporters are not part of them. Lines headed by an entry give the natural chain unless they say otherwise; changes in a name come on top.
UniProt Q9UJX5, whole entry: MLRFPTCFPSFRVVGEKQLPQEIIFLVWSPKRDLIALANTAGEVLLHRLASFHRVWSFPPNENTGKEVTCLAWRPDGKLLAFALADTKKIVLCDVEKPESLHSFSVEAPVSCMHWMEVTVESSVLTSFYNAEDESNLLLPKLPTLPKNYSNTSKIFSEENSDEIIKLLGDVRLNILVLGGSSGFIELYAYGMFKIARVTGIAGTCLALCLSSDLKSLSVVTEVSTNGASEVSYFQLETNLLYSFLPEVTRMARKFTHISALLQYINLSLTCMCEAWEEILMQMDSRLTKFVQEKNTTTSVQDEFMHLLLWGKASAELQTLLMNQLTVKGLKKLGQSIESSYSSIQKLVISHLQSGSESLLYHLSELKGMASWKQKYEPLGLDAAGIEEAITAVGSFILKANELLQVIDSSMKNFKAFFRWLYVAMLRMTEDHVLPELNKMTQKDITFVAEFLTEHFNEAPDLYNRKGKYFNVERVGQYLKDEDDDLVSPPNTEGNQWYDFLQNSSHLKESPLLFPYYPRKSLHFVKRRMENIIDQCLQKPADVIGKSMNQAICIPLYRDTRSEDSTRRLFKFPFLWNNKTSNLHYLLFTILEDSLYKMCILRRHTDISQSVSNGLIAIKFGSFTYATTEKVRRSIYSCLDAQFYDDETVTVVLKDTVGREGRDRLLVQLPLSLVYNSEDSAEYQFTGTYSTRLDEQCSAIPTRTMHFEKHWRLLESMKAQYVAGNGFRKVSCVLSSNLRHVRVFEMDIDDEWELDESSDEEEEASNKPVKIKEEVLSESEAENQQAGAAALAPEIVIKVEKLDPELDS
UniProt Q9P0B6: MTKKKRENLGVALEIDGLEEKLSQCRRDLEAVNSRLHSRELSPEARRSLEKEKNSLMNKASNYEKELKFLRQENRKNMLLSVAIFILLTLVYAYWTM
UniProt Q9ULC3: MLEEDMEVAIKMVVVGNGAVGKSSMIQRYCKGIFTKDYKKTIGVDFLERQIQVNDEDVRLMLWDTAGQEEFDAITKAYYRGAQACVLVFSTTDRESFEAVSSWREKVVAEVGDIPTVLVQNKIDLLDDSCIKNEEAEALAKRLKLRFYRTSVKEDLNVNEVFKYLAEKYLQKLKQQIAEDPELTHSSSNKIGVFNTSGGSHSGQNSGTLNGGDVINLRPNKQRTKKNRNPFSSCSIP
UniProt Q9UEE5: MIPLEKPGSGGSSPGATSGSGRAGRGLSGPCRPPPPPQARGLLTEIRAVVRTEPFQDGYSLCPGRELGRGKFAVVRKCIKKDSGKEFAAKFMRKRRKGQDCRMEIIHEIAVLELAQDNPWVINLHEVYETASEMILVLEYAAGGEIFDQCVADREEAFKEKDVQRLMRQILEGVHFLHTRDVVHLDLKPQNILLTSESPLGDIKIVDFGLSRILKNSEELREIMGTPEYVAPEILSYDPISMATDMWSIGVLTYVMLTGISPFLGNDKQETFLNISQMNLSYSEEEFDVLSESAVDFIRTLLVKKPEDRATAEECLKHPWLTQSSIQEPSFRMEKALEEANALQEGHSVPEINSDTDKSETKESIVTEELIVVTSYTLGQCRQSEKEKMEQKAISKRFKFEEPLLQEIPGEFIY
UniProt Q9NX74: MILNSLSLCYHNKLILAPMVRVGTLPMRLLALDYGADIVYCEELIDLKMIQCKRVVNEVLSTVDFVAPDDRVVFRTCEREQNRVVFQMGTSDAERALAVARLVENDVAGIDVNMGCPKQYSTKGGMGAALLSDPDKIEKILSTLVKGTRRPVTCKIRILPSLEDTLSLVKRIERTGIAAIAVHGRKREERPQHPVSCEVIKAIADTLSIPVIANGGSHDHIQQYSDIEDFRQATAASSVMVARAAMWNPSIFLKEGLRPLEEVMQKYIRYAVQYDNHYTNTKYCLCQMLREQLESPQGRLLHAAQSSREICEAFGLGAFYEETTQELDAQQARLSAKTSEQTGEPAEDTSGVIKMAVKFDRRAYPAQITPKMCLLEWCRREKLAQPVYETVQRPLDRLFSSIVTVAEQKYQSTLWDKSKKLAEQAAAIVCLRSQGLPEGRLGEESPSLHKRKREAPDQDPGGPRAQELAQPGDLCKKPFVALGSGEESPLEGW
UniProt Q9UKY1: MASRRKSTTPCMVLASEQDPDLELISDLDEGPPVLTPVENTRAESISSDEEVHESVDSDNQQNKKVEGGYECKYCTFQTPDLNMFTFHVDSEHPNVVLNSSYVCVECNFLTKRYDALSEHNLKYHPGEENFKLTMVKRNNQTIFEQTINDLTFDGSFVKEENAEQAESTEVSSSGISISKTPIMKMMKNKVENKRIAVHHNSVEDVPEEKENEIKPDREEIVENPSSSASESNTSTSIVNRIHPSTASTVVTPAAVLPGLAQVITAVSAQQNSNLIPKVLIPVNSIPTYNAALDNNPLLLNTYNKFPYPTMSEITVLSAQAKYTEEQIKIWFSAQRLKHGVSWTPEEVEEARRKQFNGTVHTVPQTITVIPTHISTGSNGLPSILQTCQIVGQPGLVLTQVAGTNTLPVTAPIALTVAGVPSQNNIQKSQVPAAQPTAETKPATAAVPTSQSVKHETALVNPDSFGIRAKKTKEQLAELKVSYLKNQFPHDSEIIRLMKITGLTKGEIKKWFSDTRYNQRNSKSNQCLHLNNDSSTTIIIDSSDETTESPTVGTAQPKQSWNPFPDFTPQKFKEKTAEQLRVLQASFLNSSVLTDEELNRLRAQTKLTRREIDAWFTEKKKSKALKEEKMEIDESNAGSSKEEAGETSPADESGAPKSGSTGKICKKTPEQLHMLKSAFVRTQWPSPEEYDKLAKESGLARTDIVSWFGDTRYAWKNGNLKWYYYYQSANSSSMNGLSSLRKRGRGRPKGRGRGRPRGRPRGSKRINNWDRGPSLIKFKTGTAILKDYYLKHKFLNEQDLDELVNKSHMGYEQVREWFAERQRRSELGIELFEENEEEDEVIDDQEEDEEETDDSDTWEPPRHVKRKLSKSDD
UniProt Q9NXN4: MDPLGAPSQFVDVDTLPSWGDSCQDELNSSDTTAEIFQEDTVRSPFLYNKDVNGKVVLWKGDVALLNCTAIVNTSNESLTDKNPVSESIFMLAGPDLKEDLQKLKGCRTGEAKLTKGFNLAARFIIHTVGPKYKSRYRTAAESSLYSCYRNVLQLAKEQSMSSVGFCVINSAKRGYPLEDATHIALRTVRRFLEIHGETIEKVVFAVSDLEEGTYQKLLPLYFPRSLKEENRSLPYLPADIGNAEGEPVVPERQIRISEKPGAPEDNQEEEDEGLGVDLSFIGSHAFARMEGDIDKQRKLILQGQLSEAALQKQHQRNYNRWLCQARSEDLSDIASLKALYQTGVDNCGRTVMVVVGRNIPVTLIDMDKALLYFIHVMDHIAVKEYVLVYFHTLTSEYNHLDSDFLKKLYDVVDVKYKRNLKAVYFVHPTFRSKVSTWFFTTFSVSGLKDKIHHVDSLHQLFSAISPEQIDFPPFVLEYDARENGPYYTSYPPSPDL
UniProt Q9UFN0: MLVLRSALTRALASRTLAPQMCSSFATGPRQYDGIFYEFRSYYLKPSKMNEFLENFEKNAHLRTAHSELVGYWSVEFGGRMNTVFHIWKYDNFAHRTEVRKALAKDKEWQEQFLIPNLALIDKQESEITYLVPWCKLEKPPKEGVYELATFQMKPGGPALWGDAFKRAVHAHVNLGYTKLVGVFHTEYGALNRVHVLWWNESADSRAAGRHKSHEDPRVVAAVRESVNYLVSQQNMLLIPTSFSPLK
UniProt Q9UHD9, whole entry: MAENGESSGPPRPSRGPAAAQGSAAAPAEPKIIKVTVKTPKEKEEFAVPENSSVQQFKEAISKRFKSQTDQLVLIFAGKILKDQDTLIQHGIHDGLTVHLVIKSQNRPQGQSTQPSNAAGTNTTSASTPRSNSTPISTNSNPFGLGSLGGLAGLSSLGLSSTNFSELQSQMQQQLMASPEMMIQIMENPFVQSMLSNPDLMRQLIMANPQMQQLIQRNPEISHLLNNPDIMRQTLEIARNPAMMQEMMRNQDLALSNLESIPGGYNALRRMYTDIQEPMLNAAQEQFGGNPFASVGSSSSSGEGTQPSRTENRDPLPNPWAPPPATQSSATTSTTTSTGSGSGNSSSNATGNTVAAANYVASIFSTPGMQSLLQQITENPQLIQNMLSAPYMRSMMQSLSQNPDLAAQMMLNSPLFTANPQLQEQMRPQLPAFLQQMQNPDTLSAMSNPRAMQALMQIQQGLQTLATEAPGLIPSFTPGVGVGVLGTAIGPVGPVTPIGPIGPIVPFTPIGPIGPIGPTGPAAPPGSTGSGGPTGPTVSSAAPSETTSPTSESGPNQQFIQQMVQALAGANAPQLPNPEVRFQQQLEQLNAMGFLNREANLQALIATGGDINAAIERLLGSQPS
UniProt Q9P2D3: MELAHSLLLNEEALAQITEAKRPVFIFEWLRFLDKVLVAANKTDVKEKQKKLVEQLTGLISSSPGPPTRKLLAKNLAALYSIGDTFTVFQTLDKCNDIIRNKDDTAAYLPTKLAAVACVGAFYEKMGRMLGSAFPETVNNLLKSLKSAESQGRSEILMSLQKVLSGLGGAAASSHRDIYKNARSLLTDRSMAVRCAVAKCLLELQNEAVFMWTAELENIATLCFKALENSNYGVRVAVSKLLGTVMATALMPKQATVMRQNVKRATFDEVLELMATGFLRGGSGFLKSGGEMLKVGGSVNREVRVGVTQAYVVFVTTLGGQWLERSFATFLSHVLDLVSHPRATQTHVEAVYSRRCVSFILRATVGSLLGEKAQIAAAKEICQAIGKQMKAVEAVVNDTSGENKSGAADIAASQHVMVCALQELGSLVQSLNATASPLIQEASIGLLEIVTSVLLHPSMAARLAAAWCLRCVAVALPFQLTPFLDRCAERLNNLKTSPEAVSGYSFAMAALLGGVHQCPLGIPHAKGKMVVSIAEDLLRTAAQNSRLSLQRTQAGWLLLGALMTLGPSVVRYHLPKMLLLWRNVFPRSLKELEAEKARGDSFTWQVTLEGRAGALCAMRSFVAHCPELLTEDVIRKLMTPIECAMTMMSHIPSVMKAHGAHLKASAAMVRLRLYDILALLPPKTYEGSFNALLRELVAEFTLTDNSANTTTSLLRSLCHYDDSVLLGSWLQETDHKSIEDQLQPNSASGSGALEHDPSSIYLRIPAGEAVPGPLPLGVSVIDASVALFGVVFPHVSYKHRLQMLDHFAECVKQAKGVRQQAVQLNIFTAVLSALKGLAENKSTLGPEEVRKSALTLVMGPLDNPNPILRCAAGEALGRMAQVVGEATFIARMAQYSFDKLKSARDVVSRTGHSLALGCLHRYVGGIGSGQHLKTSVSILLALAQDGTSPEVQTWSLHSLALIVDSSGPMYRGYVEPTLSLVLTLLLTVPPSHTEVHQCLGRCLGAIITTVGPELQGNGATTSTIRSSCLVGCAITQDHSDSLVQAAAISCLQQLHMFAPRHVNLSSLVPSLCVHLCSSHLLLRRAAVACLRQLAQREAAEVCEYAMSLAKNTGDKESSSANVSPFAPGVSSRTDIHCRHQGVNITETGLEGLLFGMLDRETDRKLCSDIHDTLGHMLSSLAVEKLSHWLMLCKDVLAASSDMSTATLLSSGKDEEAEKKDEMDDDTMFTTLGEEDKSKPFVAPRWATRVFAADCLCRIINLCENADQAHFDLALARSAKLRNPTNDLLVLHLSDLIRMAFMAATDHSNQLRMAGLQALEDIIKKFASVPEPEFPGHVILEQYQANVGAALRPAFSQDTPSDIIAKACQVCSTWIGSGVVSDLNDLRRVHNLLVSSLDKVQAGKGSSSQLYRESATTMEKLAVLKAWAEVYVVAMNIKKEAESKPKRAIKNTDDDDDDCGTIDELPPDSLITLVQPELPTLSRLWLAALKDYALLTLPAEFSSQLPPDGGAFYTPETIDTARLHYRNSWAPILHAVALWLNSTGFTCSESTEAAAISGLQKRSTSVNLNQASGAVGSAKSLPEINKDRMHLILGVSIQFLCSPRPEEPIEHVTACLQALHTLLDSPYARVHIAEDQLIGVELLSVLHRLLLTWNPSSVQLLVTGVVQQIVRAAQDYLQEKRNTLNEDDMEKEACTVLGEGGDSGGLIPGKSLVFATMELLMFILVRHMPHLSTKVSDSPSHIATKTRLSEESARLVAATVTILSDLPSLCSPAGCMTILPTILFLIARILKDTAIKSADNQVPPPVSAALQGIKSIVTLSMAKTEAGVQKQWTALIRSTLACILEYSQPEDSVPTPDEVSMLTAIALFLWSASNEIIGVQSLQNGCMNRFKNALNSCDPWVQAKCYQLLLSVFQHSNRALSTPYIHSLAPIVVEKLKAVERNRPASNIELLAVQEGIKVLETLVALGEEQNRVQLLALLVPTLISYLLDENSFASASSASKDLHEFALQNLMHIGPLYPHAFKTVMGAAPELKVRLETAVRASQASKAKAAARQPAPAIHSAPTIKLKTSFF
UniProt Q9NX24: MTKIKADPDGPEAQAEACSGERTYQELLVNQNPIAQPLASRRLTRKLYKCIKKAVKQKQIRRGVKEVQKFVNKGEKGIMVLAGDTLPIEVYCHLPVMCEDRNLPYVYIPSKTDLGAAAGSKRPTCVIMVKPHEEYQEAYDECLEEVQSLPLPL

| Target | NP40-soluble protein abundance (concentration: 0.1mM) | NP40-soluble protein abundance (concentration: 0.5mM) | NP40-soluble protein abundance (concentration: 1mM) | NP40-soluble protein abundance (concentration: 2mM) | NP40-soluble protein abundance (concentration: 4mM) | NP40-soluble protein abundance (concentration: 6mM) | NP40-soluble protein abundance (concentration: 8mM) | NP40-soluble protein abundance (concentration: 10mM) |
| --- | --- | --- | --- | --- | --- | --- | --- | --- |
| UniProt Q9UJX5 and related entries | 1.2 ± 0.19 | 1.24 ± 0.3 | 1.15 ± 0.19 | 1.27 ± 0.23 | 1.25 ± 0.27 | 1.23 ± 0.32 | 1.2 ± 0.23 | 1.13 ± 0.17 |
| UniProt Q9P0B6 | 0.888 ± 0.038 | 0.805 ± 0.091 | 1.05 ± 0.1 | 1.02 ± 0.19 | 0.926 ± 0.095 | 0.853 ± 0.12 | 0.843 ± 0.12 | 0.959 ± 0.03 |
| UniProt Q9ULV4 and related entries | 0.986 ± 0.021 | 1.11 ± 0.089 | 1.16 ± 0.088 | 1.26 ± 0.17 | 1.42 ± 0.22 | 1.53 ± 0.3 | 1.67 ± 0.33 | 1.74 ± 0.36 |
| UniProt Q9NYU2 and related entries | 1 ± 0.013 | 1.04 ± 0.05 | 0.956 ± 0.014 | 0.955 ± 0.043 | 0.942 ± 0.023 | 0.951 ± 0.028 | 0.9104 ± 0.008 | 0.885 ± 0.035 |
| UniProt Q9UIA9 and related entries | 0.979 ± 0.035 | 0.971 ± 0.038 | 0.908 ± 0.034 | 0.93 ± 0.031 | 0.951 ± 0.032 | 0.898 ± 0.016 | 0.88 ± 0.036 | 0.881 ± 0.033 |
| UniProt Q9P107 and related entries | 1.1 ± 0.029 | 1.05 ± 0.031 | 1.075 ± 0.0081 | 1.09 ± 0.019 | 1.1 ± 0.058 | 1.06 ± 0.03 | 1.128 ± 0.0063 | 1.07 ± 0.0035 |
| TPX2 (UniProt Q9ULW0) | 1.01 ± 0.024 | 1.03 ± 0.053 | 1.14 ± 0.042 | 1.21 ± 0.094 | 1.33 ± 0.066 | 1.35 ± 0.081 | 1.45 ± 0.12 | 1.46 ± 0.13 |
| RBM28 (UniProt Q9NW13) | 0.978 ± 0.049 | 1.01 ± 0.058 | 1.04 ± 0.062 | 1.06 ± 0.061 | 1.1 ± 0.068 | 1.16 ± 0.059 | 1.21 ± 0.082 | 1.27 ± 0.11 |
| SLTM (UniProt Q9NWH9) | 0.953 ± 0.055 | 0.968 ± 0.066 | 0.991 ± 0.077 | 0.987 ± 0.092 | 1.03 ± 0.08 | 1.1 ± 0.09 | 1.16 ± 0.094 | 1.18 ± 0.12 |
| RAB23 (UniProt Q9ULC3) | 0.966 ± 0.022 | 1 ± 0.061 | 0.914 ± 0.04 | 0.949 ± 0.078 | 0.839 ± 0.07 | 0.877 ± 0.049 | 0.862 ± 0.1 | 0.806 ± 0.13 |
| UniProt Q9UEE5 | 1.2 ± 0.22 | 1.11 ± 0.054 | 1.107 ± 0.0057 | 1.12 ± 0.11 | 1.035 ± 0.0085 | 0.969 ± 0.059 | 0.9349 ± 0.0081 | 1.04 ± 0.047 |
| AASS (UniProt Q9UDR5) | 1.05 ± 0.026 | 1.02 ± 0.11 | 0.968 ± 0.065 | 0.987 ± 0.086 | 0.97 ± 0.091 | 0.953 ± 0.11 | 0.956 ± 0.062 | 0.89 ± 0.044 |
| UniProt Q9NX74 | 1.03 ± 0.016 | 1.05 ± 0.039 | 1.02 ± 0.022 | 1.01 ± 0.039 | 1.01 ± 0.055 | 0.991 ± 0.055 | 1.02 ± 0.044 | 0.964 ± 0.045 |
| UniProt Q9NZ08 and related entries | 0.95 ± 0.028 | 0.948 ± 0.023 | 0.924 ± 0.011 | 0.923 ± 0.026 | 0.912 ± 0.022 | 0.899 ± 0.026 | 0.8882 ± 0.0061 | 0.875 ± 0.04 |
| UniProt Q9NXH9 and related entries | 1.02 ± 0.026 | 0.954 ± 0.03 | 0.989 ± 0.088 | 0.941 ± 0.03 | 0.963 ± 0.024 | 0.92 ± 0.018 | 0.956 ± 0.045 | 0.932 ± 0.052 |
| AK3 (UniProt Q9UIJ7) | 0.926 ± 0.061 | 0.875 ± 0.029 | 0.924 ± 0.029 | 0.917 ± 0.061 | 0.902 ± 0.075 | 0.886 ± 0.059 | 0.825 ± 0.1 | 0.853 ± 0.064 |
| UniProt Q9NZM5 | 0.985 ± 0.053 | 0.939 ± 0.14 | 1.04 ± 0.083 | 1.03 ± 0.17 | 1.05 ± 0.16 | 1.07 ± 0.21 | 1.18 ± 0.17 | 1.13 ± 0.093 |
| DDX18 (UniProt Q9NVP1) | 1.084 ± 0.0038 | 1.11 ± 0.024 | 1.08 ± 0.021 | 1.2 ± 0.071 | 1.42 ± 0.057 | 1.55 ± 0.061 | 1.69 ± 0.043 | 1.94 ± 0.066 |
| UniProt Q9ULR0 and related entries | 0.968 ± 0.081 | 0.97 ± 0.038 | 1.09 ± 0.14 | 1.1 ± 0.11 | 1.06 ± 0.17 | 1.06 ± 0.097 | 1.08 ± 0.17 | 1.13 ± 0.2 |
| UniProt Q9UIS9 and related entries | 0.98 ± 0.054 | 0.955 ± 0.069 | 1.09 ± 0.014 | 1.05 ± 0.046 | 1.08 ± 0.037 | 1.06 ± 0.068 | 1.07 ± 0.082 | 1.11 ± 0.048 |
| UniProt Q9UK45 and related entries | 1.05 ± 0.22 | 1 ± 0.15 | 1.12 ± 0.24 | 1.07 ± 0.21 | 1.04 ± 0.2 | 1.08 ± 0.17 | 1.06 ± 0.22 | 1.07 ± 0.22 |
| UniProt Q9NYP9 | 0.995 ± 0.047 | 1.02 ± 0.028 | 0.935 ± 0.053 | 0.944 ± 0.027 | 0.907 ± 0.035 | 0.956 ± 0.03 | 0.949 ± 0.052 | 0.948 ± 0.088 |
| ZHX1 (UniProt Q9UKY1) | 1.09 ± 0.08 | 1.11 ± 0.039 | 1.12 ± 0.11 | 1.09 ± 0.077 | 1.15 ± 0.041 | 1.09 ± 0.048 | 1.19 ± 0.09 | 1.17 ± 0.092 |
| GTF3C4 (UniProt Q9UKN8) | 1.05 ± 0.014 | 1.05 ± 0.043 | 1.05 ± 0.034 | 1.06 ± 0.057 | 1.06 ± 0.055 | 1.05 ± 0.056 | 1.03 ± 0.011 | 1.04 ± 0.054 |
| UniProt Q9NXN4 and related entries | 1.1 ± 0.079 | 1.04 ± 0.11 | 1 ± 0.095 | 0.959 ± 0.13 | 0.992 ± 0.11 | 0.949 ± 0.093 | 0.921 ± 0.1 | 0.897 ± 0.1 |
| NIPSNAP3A (UniProt Q9UFN0) | 1.06 ± 0.017 | 1 ± 0.041 | 0.896 ± 0.031 | 0.901 ± 0.062 | 0.9361 ± 0.0045 | 0.86 ± 0.034 | 0.857 ± 0.057 | 0.816 ± 0.078 |
| UBQLN2 (UniProt Q9UHD9) | 1.01 ± 0.14 | 0.99 ± 0.052 | 1.07 ± 0.13 | 1.05 ± 0.051 | 0.99 ± 0.073 | 1.01 ± 0.057 | 0.985 ± 0.11 | 1 ± 0.079 |
| UniProt Q9P2D3 and related entries | 1.15 ± 0.21 | 1.13 ± 0.16 | 1.11 ± 0.17 | 1.17 ± 0.21 | 1.08 ± 0.15 | 1.11 ± 0.16 | 1.1 ± 0.26 | 1.1 ± 0.21 |
| UniProt Q9NWY4 | 1 ± 0.026 | 1 ± 0.011 | 0.962 ± 0.048 | 0.944 ± 0.036 | 0.938 ± 0.078 | 0.916 ± 0.056 | 0.938 ± 0.066 | 0.885 ± 0.081 |
| NHP2 (UniProt Q9NX24) | 0.959 ± 0.056 | 0.942 ± 0.054 | 1.02 ± 0.069 | 1.09 ± 0.067 | 1.2 ± 0.096 | 1.39 ± 0.16 | 1.45 ± 0.16 | 1.75 ± 0.35 |

Whole records, quoted from the list.
UniProt Q9UJX5 and related entries in the list: NP40-soluble protein abundance (concentration: 0.1mM): 1.2 ± 0.19; NP40-soluble protein abundance (concentration: 0.5mM): 1.24 ± 0.3; NP40-soluble protein abundance (concentration: 1mM): 1.15 ± 0.19; NP40-soluble protein abundance (concentration: 2mM): 1.27 ± 0.23; NP40-soluble protein abundance (concentration: 4mM): 1.25 ± 0.27; NP40-soluble protein abundance (concentration: 6mM): 1.23 ± 0.32; NP40-soluble protein abundance (concentration: 8mM): 1.2 ± 0.23; NP40-soluble protein abundance (concentration: 10mM): 1.13 ± 0.17
DDX18 (UniProt Q9NVP1) in the list: NP40-soluble protein abundance (concentration: 0.1mM): 1.084 ± 0.0038; NP40-soluble protein abundance (concentration: 0.5mM): 1.11 ± 0.024; NP40-soluble protein abundance (concentration: 1mM): 1.08 ± 0.021; NP40-soluble protein abundance (concentration: 2mM): 1.2 ± 0.071; NP40-soluble protein abundance (concentration: 4mM): 1.42 ± 0.057; NP40-soluble protein abundance (concentration: 6mM): 1.55 ± 0.061; NP40-soluble protein abundance (concentration: 8mM): 1.69 ± 0.043; NP40-soluble protein abundance (concentration: 10mM): 1.94 ± 0.066

Source: the supplement of paper PMC6411743
